{"sequences": {"note": "The chains behind the UniProt entries cited, without tags or fusion partners.", "UniProt P10415": "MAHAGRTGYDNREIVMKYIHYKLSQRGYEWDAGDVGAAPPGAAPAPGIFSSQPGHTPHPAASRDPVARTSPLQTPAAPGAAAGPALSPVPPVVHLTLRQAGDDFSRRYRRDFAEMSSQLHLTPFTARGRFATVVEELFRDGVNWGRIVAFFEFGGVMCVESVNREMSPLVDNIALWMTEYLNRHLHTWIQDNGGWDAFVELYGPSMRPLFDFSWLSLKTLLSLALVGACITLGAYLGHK", "UniProt P19474": "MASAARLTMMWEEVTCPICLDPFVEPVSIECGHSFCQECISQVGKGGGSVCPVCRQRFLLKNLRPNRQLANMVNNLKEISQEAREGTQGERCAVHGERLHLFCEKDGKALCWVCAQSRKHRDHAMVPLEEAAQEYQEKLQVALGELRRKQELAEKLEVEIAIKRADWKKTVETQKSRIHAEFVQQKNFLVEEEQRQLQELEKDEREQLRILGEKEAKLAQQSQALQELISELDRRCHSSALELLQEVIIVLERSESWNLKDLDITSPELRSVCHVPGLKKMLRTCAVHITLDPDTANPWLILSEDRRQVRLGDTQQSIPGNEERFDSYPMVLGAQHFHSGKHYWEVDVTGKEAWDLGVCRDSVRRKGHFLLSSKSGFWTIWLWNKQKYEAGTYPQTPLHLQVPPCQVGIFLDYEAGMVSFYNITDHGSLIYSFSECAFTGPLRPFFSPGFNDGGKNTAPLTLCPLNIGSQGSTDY"}, "source": "paper PMC12343803", "target": "BCL2 (UniProt P10415)", "test": "affinity purification with mass spectrometry; co-immunoprecipitation mass spectrometry (Co-IP-MS) of BCL2; cells and antibody not told", "note": "No constants are given. Whether binding was seen depends on the method and setting. Binding seen in cells or lysates may run through a third protein. These calls come from enrichment with a bait or labelling near it, and not all partners need be listed.", "data": [{"substance": "TRIM21 (from UniProt P19474 1-475)", "values": [{"measurement": "binding", "value": "binds"}]}]}
